Test results as given in PubChem BioAssay AID540276 (National Center for Advancing Translational Sciences (NCATS), 2011).
In all, about 300,000 compounds went through this assay and about 5,400 (1.8%) were called active. This list was built around the results that the source calls inconclusive (neither active nor inactive); the mix of calls is not that of the screen. Calls come from the whole dose curve; tested in HEK293 cells. Potencies of inconclusive entries are doubtful fits and often do not repeat.
% is set by controls: 0 for no effect and ±100 for the full control effect; potency is the fitted concentration of half-maximal effect.

Assay: qHTS for inhibitors of binding or entry into cells for Marburg Virus
Settings: Marburg virus pseudotyped entry inhibition, cell reporter; activity change, negative = inhibition: at 37.8 µM (top of the series) unless noted
In the case of `CCN(CC)C(=O)CSc1ncnc2sc(-c3ccccc3)cc12`, the Potency was inconclusive: 29.1 µM [inhibitor, single point]. With `O=C(O)C1C=Cc2ccccc2N1C(=O)c1ccccc1` (configuration not stated) (tested in a mixture with another compound) the “activity change, negative = inhibition” value was inactive: 19.5%. For `CC(=O)N/N=C(\C)CC(=O)NC(C)(C)C`, the “activity change, negative = inhibition” value was inactive: 25.4% [at 46.1 µM]. For `Cc1nc(-c2nc(CC(=O)NNC(=O)c3ccc(Cl)cc3)cs2)cs1`, the “activity change, negative = inhibition” value was inactive: 0.988%. In the case of `Cc1cccc(NC(=O)CCN2CCN(C/C=C/c3ccccc3)CC2)c1`, the Potency was inconclusive: 8.91 µM [inhibitor, partial curve, poor fit]. With `O=c1cnc2ccccc2n1Cc1ccc(Br)cc1` the “activity change, negative = inhibition” value was inactive: 4.2% [at 46.1 µM]. In the case of `COc1ccc(-c2cc(=Nc3ccc(C)cc3)c3ccccc3o2)cc1`, the Potency was inconclusive: 20.6 µM [inhibitor, partial curve]. With `C[C@H](NC(=O)Cc1cccc2ccccc12)C(=O)NCc1ccccc1` the Potency was inconclusive: 35.5 µM [inhibitor, single point]. For `O=c1cc(O)c2c(=O)n(-c3ccccc3)c3c(c2o1)CCCCCC3`, the Potency was inconclusive: 0.316 µM [activator, partial curve, poor fit]. In the case of `O=C(c1ccc(Cl)cc1)c1oc2ccccc2c1CS(=O)c1ccc(Cl)cc1` (configuration not stated), the Potency was inconclusive: 6.51 µM [inhibitor, partial curve, poor fit]. In the case of `COc1ccccc1N1CCN(C2CCN(S(=O)(=O)c3ccc(NC(C)=O)cc3)CC2)CC1`, the Potency was inconclusive: 29.1 µM [inhibitor, single point]. With `CCN(CC)S(=O)(=O)c1ccc2[nH]cc(C(=O)NCCCN3CCCCC3)c(=O)c2c1` the Potency was inconclusive: 0.316 µM [activator, partial curve, poor fit]. In the case of `CCOC(=O)N1CCC(N2Cc3cccc(C(=O)Nc4ccc(CC)cc4)c3C2=O)CC1`, the Potency was inconclusive: 16.4 µM [inhibitor, single point]. With `CCOC(=O)C1CCN(C(=O)CCS(=O)(=O)c2ccc3c(c2)CCN3C(C)=O)CC1` the Potency was inconclusive: 0.259 µM [inhibitor, full curve, poor fit]. For `CCN(CC(=O)N1CCOCC1)S(=O)(=O)c1ccc(F)cc1`, the “activity change, negative = inhibition” value was inactive: 0.947% [at 46.1 µM]. For `COc1ccc(C(=O)Nc2ccc3c4c(cccc24)CC3)cc1`, the “activity change, negative = inhibition” value was inactive: -0.577%. With `O=C(O)C1C2C=CC(C2)C1C(=O)Nc1cccc(F)c1` (configuration not stated) the “activity change, negative = inhibition” value was inactive: -3.66%. With `CCNS(=O)(=O)c1ccc(CCC(=O)Nc2cc(Cl)ccc2Oc2ccccc2)cc1` the Potency was inconclusive: 18.3 µM [inhibitor, single point]. With `Cc1cc(NC(=O)c2cc([N+](=O)[O-])cc([N+](=O)[O-])c2)n(-c2ccccc2)n1` the activity change, negative = inhibition was inconclusive: 1.71% [activator]. In the case of `CNc1c([N+](=O)[O-])ncn1C`, the “activity change, negative = inhibition” value was inactive: 10.2%. With `O=C1CSC(c2nn(-c3ccccc3)cc2-c2cc3ccccc3oc2=O)N1Cc1ccco1` (configuration not stated) the Potency was inconclusive: 29.1 µM [inhibitor, single point]. With `Cc1cc2ccccc2n1CCNC(=O)C1CCCC1` the Potency was inconclusive: 6.31 µM [inhibitor, partial curve, poor fit]. In the case of `O=C(COCC(=O)Nc1cccc(C(F)(F)F)c1)Nc1cccc(C(F)(F)F)c1`, the Potency was inconclusive: 29.1 µM [inhibitor, single point]. For `C=CCn1c(=N)n(CC(=O)OC)c2ccccc21`, the Potency was inconclusive: 5.62 µM [activator, single point]. With `COC(=O)N[C@@H](c1ccccc1)C(C(=O)OC)C(=O)OC` the Potency was inconclusive: 0.0841 µM [activator, full curve, poor fit]. For `COc1ccccc1-n1cnnc1SCc1csc(-c2ccccc2)n1`, the Potency was inconclusive: 35.5 µM [inhibitor, single point]. In the case of `Cc1ccccc1C(=O)N1CCN(c2ncnc3c2cnn3-c2ccccc2)CC1`, the Potency was inconclusive: 32.6 µM [inhibitor, single point]. For `Cc1cnc(NC(=O)CSc2nnc(CNc3ccc(F)cc3)n2CC2CCCO2)s1` (configuration not stated), the Potency was inconclusive: 1.03 µM [inhibitor, full curve, poor fit]. In the case of `Cc1ccc(C(=O)CSc2ncnc3ccccc23)o1`, the Potency was inconclusive: 2 µM [activator, partial curve, poor fit]. For `O=C(COC(=O)c1ccc(Br)o1)Nc1nc2ccccc2s1`, the “activity change, negative = inhibition” value was inactive: 14.4%. With `N#Cc1c(N2CCOCC2)nc(-c2ccco2)c2c1CCCC2` the Potency was inconclusive: 14.1 µM [inhibitor, single point]. With `CCOC(=O)CSc1nnc(-c2ccco2)n1-c1ccc(C)cc1` the “activity change, negative = inhibition” value was inactive: 4.55%. With `COc1ccc(NC(=O)c2cc(-c3ccccn3)nc3ccccc23)cc1S(=O)(=O)N(C)C` the Potency was active: 15.8 µM. In the case of `C/C(=N\NC(=O)c1cc(C(C)(C)C)[nH]n1)C12CC3CC(CC(C3)C1)C2`, the Potency was inconclusive: 1.12 µM [inhibitor, full curve]. In the case of `CCOc1ccc(OCC)c(NC(=O)CSc2nnnn2CC)c1`, the Potency was inconclusive: 20 µM [activator, single point]. In the case of `Cc1ccc(NC(=S)C2=C(O)c3sccc3N(C)S2(=O)=O)cc1`, the “activity change, negative = inhibition” value was inactive: -6.04% [at 46.1 µM]. With `O=C(NCc1ccc(F)cc1)C(=O)NCC1CCCN1S(=O)(=O)c1ccccc1` (configuration not stated) the Potency was inconclusive: 1.26 µM [activator, single point]. For `Cc1nn(-c2ccccc2)c(N2CCCC2)c1/C=N/NC(=O)c1cc(-c2cccnc2)nc2ccccc12`, the Potency was inconclusive: 12.6 µM [inhibitor, single point]. For `CCn1cc(C(=O)OCC(=O)Nc2c(C)n(C)n(-c3ccccc3)c2=O)c(=O)c2ccc(C)nc21`, the Potency was inconclusive: 13 µM [inhibitor, partial curve]. For `COc1ccc(Nc2nnc(-c3ccc(C)c(S(=O)(=O)NCc4nc5ccccc5[nH]4)c3)c3ccccc23)cc1`, the Potency was inconclusive: 35.5 µM [inhibitor, single point]. With `CCOc1ccccc1C(=O)NC1(C(F)(F)F)C(=O)Nc2c1c(=O)[nH]c(=O)n2-c1ccccc1` (configuration not stated) the Potency was inconclusive: 7.08 µM [inhibitor, partial curve, poor fit]. For `COc1ccccc1C1CC(=O)Nc2cc(C)c(C)cc21` (configuration not stated), the Potency was inconclusive: 15.8 µM [inhibitor, partial curve, poor fit].
